Where two headings read alike, the source gives them in different places. Some compounds share one wording; it may come from a single statement.
Key:
[1] = Table 4, taken from safety data sheets, for guidance; cited from earlier work
[2] = Biodegradability according to OECD 301 B/F; conditions: Table 2, biodegradability
[3] = Vibration-frictional wear test (SRV, model III; ASTM D7421-08, fretting load); conditions: for adhesive failure: at 2000 N or after 40 minutes, +80° C.

In the case of `CC(C)CCCCCCCCCCOC(=O)CCCCC(=O)OCCCCCCCCCCC(C)C` [DITA, diisotridecyl adipate, reference compound], the “OECD 301 B/F” value [1] is given as 87% and the “OECD 301 B/F” value [2] is given as 92%.

In the case of `CC(C)CCCCCCCOC(=O)CCCCCCCCCCC(=O)OCCCCCCCC(C)C` [Di(isodecyl) dodecanedioate], the “OECD 301 B/F” value [2] is reported as 93%.

In the case of `CC(C)CCCCCCCCCCCCCCC(=O)OCC(C)(C)COC(=O)CCCCCCCCCCCCCCC(C)C` [D5C18, neopentyl glycol di(isostearate)], the “OECD 301 B/F” value [1] is given as 85%.

For `CC(C)CCCCCCCCCCOC(=O)CCCCCCCCCCC(=O)OCCCCCCCCCCC(C)C` [C12D13, di(isotridecyl)dodecanedioate], the “OECD 301 B/F” value [2] was 76%, the fretting load ([3]; after a time of about 42 min, FIG. 1) was greater than 1700 N and the adhesive failure [3] was “still no occurrence of adhesive failure”.

With `CC(C)CCCCCCCCCCOC(=O)CCCCCCCCC(=O)OCCCCCCCCCCC(C)C` [C10D13, di(isotridecyl)decanedioate] the adhesive failure [3] was “still no occurrence of adhesive failure”.

In the case of `CC(C)CCCCCCCOC(=O)CCCCC(=O)OCCCCCCCC(C)C` [Diisodecyl adipate], the “OECD 301 B/F” value [2] is reported as 82%.

In the case of “trimethylolpropane ester [TMP-C8/10, reference compound]”, the “OECD 301 B/F” value [1] is given as 64-88%.

In the case of `CC(C)CCCCCCCCCCOC(=O)CCCCCCCC(=O)OCCCCCCCCCCC(C)C` [C9D13, di(isotridecyl)nonanedioate], the adhesive failure [3] is reported as “still no occurrence of adhesive failure”.

Source: patent US20130190217A1, “ESTER OILS” (PANOLIN Holding AG, priority 2010, published 2013)
